Measurements from PubChem BioAssay AID2517 (National Center for Advancing Translational Sciences (NCATS), 2010).
Among all 350,000 compounds or so, about 1,200 (0.34%) were called active. This list was built around the results that the source calls inconclusive (neither active nor inactive); the mix of calls is not that of the screen. Calls follow the shape of the dose curve; as a rule, active = well fitted inhibition curve with a large enough effect; inconclusive = small, poorly fitted or top-dose-only effect; inactive = no such curve, though single readings can be large or run the other way. Where the call is inconclusive, the potency comes from a doubtful curve fit. Some structures have more than one record in an assay (separate samples or runs), and their calls can disagree.
Also: nearly all actives have a fitted effect of over 55% in size.
Potency is read from the fitted curve at half-maximal effect.

Amino acid sequences for entries named in this document (tags omitted).
UniProt P27695, whole entry, looked up: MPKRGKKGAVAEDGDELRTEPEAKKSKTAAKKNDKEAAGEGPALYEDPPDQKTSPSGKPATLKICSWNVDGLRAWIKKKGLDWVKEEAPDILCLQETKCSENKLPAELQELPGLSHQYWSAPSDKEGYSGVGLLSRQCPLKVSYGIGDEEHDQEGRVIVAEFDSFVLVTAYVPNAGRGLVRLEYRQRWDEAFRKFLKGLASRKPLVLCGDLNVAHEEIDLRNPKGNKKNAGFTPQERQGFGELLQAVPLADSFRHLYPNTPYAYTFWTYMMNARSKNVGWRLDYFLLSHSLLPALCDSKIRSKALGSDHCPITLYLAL

These compounds were tested against DNA repair nuclease/redox regulator APEX1 (Homo sapiens) (UniProt P27695) (assay: qHTS Assay for Inhibitors of the Human Apurinic/apyrimidinic Endonuclease 1 (APE1)). Conditions: recombinant APE1, TAMRA/BHQ-2 abasic DNA cleavage fluorescence; series mostly up to 65.8 µM.
Summary of the method: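 Readout is kinetic fluorescence (ex 525, em 598 nm) from cleavage of 50 nM TAMRA/BHQ-2 THF abasic duplex by 0.75 nM APE1, compound added 15 min beforehand at RT.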
For H-YPFVEPI-OH, the Potency was inconclusive: 11.2 µM [inhibitor, single point]. In the case of `Clc1ccc(OCC#CCN2CCCC2)cc1`, the Potency is reported as inconclusive: 44.7 µM [inhibitor, single point]. In the case of `CC(=O)OC1CCC2(C)C3=C(CCC2C1(C)C)[C@]1(C)CCC(C(C)CCC=C(C)C)[C@]1(C)CC3` (stereo partly drawn), the Potency is reported as inconclusive: 35.5 µM [inhibitor, partial curve]. `CC(C)(c1ccc(OCC2CO2)cc1)c1ccc(OCC2CO2)cc1` (stereo not drawn) was tested, and the Potency was inconclusive: 35.5 µM [inhibitor, partial curve]. In the case of `N#Cc1c(-c2ccco2)no[n+]1[O-]`, the Potency is reported as inconclusive: 0.0112 µM [inhibitor, full curve]. `CN1CCN2c3ccccc3CC3(C(=O)N(C)C(=O)N(C)C3=O)C2C1` (stereo not drawn) was tested, and the Potency was inconclusive: 0.708 µM [inhibitor, full curve]. With `CN(C)c1ccc(/C=C2\C(=O)NC(=O)N(Cc3ccc(F)cc3)C2=O)cc1` the Potency was “inactive”. With `CC(=O)O[C@H]1C[C@H]2CC[C@@H]3[C@@H](CC[C@]4(C)[C@H](OC(C)=O)[C@H]([N+]5(C)CCCCC5)C[C@@H]34)[C@]2(C)C[C@H]1[N+]1(C)CCCCC1` the Potency was “inactive”. In the case of `C[C@@H]1NCCc2cc(O)c(O)cc21`, the Potency is reported as inconclusive: 15.8 µM [inhibitor, partial curve, poor fit]. With `Cc1cc(OC(=O)N(C)C)n(-c2ccccc2)n1` the Potency was “inactive”. In the case of `Oc1ccc(/C=N/NP(=S)(c2ccccc2)c2ccccc2)cc1O`, the Potency is reported as inconclusive: 31.6 µM [inhibitor, single point]. For `COc1ccc(Cc2nccc3cc(OC)c(OC)cc23)cc1OC`, the Potency was inconclusive: 6.31 µM [inhibitor, partial curve]. In the case of `O=c1[nH]c(=O)n(CCC2=CCCCC2)c(O)c1/C=N/Nc1cccc2ccccc12`, the Potency is reported as inconclusive: 3.98 µM [inhibitor, partial curve]. `O=C(O)c1c[nH]c2ccc(S(=O)(=O)N(CCCl)CCCl)cc12` was tested, and the Potency was inconclusive: 3.55 µM [inhibitor, single point]. With `CCOC(=O)C1(c2ccccc2)CCN(Cc2cccc(C(=O)O)c2)CC1` the Potency was inconclusive: 39.8 µM [inhibitor, single point]. For `Oc1ccccc1O`, the Potency was active: 28.2 µM. For `CO/N=C(\C(=O)N[C@@H]1C(=O)N2C(C(=O)O)=C(CSc3nc(=O)c(O)nn3C)CS[C@H]12)c1csc(N)n1`, the Potency was active: 14.1 µM. `CCN(CCO)c1ccc(N=Cc2c(O)n(C)c(=S)[nH]c2=O)cc1` was tested, and the Potency was inconclusive: 8.91 µM [inhibitor, single point]. For `C[C@@]12CC(c3ccoc3)OC(=O)C1CC[C@@]1(C)C2C2C=C[C@@]1(O)C(=O)O2` (stereo partly drawn), the Potency was inconclusive: 20 µM [inhibitor, partial curve]. `COc1ccc(Cn2c(N)c(C(=O)NCc3ccco3)c3nc4ccccc4nc32)cc1OC` was tested, and the Potency was inconclusive: 35.5 µM [inhibitor, single point]. In the case of `O=C1NC(=O)N(Cc2ccc(F)cc2)C(=O)/C1=C\c1ccc([N+](=O)[O-])s1`, the Potency is reported as inconclusive: 22.4 µM [inhibitor, partial curve]. With `CN1CCC23c4c5ccc(O)c4O[C@@H]2[C@H](O)C=CC3C1C5` (stereo partly drawn) the Potency was “inactive”. With `CCN(N=O)C(N)=O` the Potency was “inactive”. With `COc1ccc2c3c([nH]c2c1)C(C)=NCC3` the Potency was inconclusive: 25.1 µM [inhibitor, partial curve]. `CCC(C)(C)c1ccc(O)cc1` was tested, and the Potency was inconclusive: 35.5 µM [inhibitor, single point]. In the case of `O=C1NC(=S)N(c2ccccc2)C(=O)/C1=C/c1ccco1`, the Potency is reported as active: 16.8 µM. For `O=C1NC(=O)N(c2ccccc2F)C(=O)/C1=C/c1ccc(Oc2ccc([N+](=O)[O-])cn2)cc1`, the Potency was inconclusive: 31.6 µM [inhibitor, single point]. In the case of `c1ccc(CN2CCC3(CCc4ccccc43)CC2)cc1`, the Potency is reported as inconclusive: 44.7 µM [inhibitor, single point]. `CCOc1ccc(N2C(=O)NC(=O)/C(=C\c3ccc(N4CCCCC4)o3)C2=O)cc1` was tested, and the Potency was “inactive”. `Cc1nc(C(=O)O)nn1-c1ccc([N+](=O)[O-])cc1` was tested, and the Potency was inconclusive: 35.5 µM [inhibitor, single point]. With `Cn1c(O)c(/C=C2\C=c3ccccc3=NC2=O)c(=O)n(C)c1=O` the Potency was “inactive”. For `COCCN1Cc2cc(=O)n3c([nH]c4ccccc43)c2C1=N`, the Potency was inconclusive: 2 µM [inhibitor, full curve]. `CC(=O)O[C@H](CC(=O)O)C[N+](C)(C)C` was tested, and the Potency was inconclusive: 44.7 µM [inhibitor, single point]. `CC1CC2CCC(O2)C(C)C(=O)OC(C)CC2CCC(O2)C(C)C(=O)OC(C)CC2CCC(O2)C(C)C(=O)OC(C)CC2CCC(O2)C(C)C(=O)O1` (stereo not drawn) was tested, and the Potency was “inactive”. `CCCCC/C=C\C[C@@H](/C=C/C=C\C/C=C\CCCC(=O)O)OO` was tested, and the Potency was inconclusive: 39.8 µM [inhibitor, single point]. In the case of `O=C1CC2(CCCC2)CC(=O)N1CCCCN1CCN(c2ncccn2)CC1`, the Potency is reported as inconclusive: 31.6 µM [inhibitor, single point]. For `Cn1cc(C(=O)C(=O)N[C@H]2CN3CCC2CC3)c2ccccc21`, the Potency was inconclusive: 28.2 µM [inhibitor, partial curve, poor fit]. In the case of `C[N+](=O)[O-]`, the Potency is reported as “inactive”. With `CCOc1cccc(C2NCc3ccccc3-n3cccc32)c1O` (stereo not drawn) the Potency was inconclusive: 12.6 µM [inhibitor, partial curve, poor fit]. In the case of `CNC(=S)S`, the Potency is reported as inconclusive: 35.5 µM [inhibitor, single point]. `O=C1NC(=O)N(c2ccccc2)C(=O)/C1=C/c1ccoc1` was tested, and the Potency was inconclusive: 31.6 µM [inhibitor, single point]. In the case of `CC1Cc2ccccc2N1NC(=O)c1ccc(Cl)c(S(N)(=O)=O)c1` (stereo not drawn), the Potency is reported as active: 2.24 µM. `O=C1NC(=O)N(c2ccccc2F)C(=O)/C1=C/c1ccc(Sc2nc3ccccc3[nH]2)o1` was tested, and the Potency was inconclusive: 35.5 µM [inhibitor, single point]. `Cc1ccc(-n2c(O)c(/C=N/N3CCCCC3c3cccnc3)c(=O)[nH]c2=S)cc1` (stereo not drawn) was tested, and the Potency was “inactive”. With `Cc1ccc(Sc2c(C)[nH]n(C(C)(C)C)c2=O)cc1` the Potency was inconclusive: 11.2 µM [inhibitor, full curve, poor fit]. With `O=C(O)c1ccc2[nH]cc(CCCCN3CC=C(c4ccccc4)CC3)c2c1` the Potency was inconclusive: 39.8 µM [inhibitor, partial curve, poor fit]. In the case of `COC(=O)c1ccc(COc2cc(C)cc3oc(=O)c4c(c23)CCCC4)o1`, the Potency is reported as inconclusive: 17.8 µM [inhibitor, partial curve]. For `C=C1C(=O)O[C@@H]2C[C@@H](C)[C@H]3C=CC(=O)[C@]3(O)C[C@@H]12`, the Potency was inconclusive: 5.01 µM [inhibitor, full curve, poor fit]. In the case of `CCC12CCN(CCc3ccccc3)CC1Oc1c(O)cccc12` (stereo not drawn), the Potency is reported as “inactive”. For `c1ccc2c(c1)[I+]c1ccccc1-2`, the Potency was inconclusive: 22.4 µM [inhibitor, single point]. `c1cncc(CNC2CCCCC2)c1` was tested, and the Potency was “inactive”. For `O=C(CN1CC=C(c2ccccc2)CC1)NC(=O)NC1CCCCC1`, the Potency was inconclusive: 0.0282 µM [inhibitor, full curve, poor fit]. With `Cc1cc(/C=C2\C(=O)NC(=O)N(c3ccccc3)C2=O)c(C)n1-c1ccc(C(=O)O)c(Cl)c1` the Potency was “inactive”. In the case of `CC(C)C[C@H](NC(=O)[C@H](Cc1ccccc1)NC(=O)CNC(=O)[C@H](C)NC(=O)[C@@H](N)Cc1ccc(O)cc1)C(=O)O`, the Potency is reported as “inactive”. With `C/C(=N\Nc1cccc2ccccc12)c1c(O)n(Cc2ccccc2)c(=O)[nH]c1=O` the Potency was “inactive”. `O=C1NC(=O)N(c2ccc(Cl)cc2)C(=O)/C1=C/c1coc2ccc(O)cc2c1=O` was tested, and the Potency was inconclusive: 44.7 µM [inhibitor, single point]. In the case of `C/C=C1\C[C@H](C)[C@@](O)(CO)C(=O)OCC2=CCN3CC[C@@H](OC1=O)[C@@H]23`, the Potency is reported as inconclusive: 5.62 µM [inhibitor, full curve]. `CC[C@@]1(O)C(=O)OCc2c1cc1n(c2=O)Cc2cc3c(N)cccc3nc2-1` was tested, and the Potency was inconclusive: 35.5 µM [inhibitor, single point]. `Cn1c(O)c(C=NCc2ccco2)c(=O)n(C)c1=O` was tested, and the Potency was inconclusive: 3.16 µM [inhibitor, single point]. `CN1CC[C@@]2(C)c3cc(O)ccc3N(C)C12` (stereo partly drawn) was tested, and the Potency was inconclusive: 44.7 µM [inhibitor, single point]. `COc1ccccc1-c1[se]c2ccccc2c1I` was tested, and the Potency was inconclusive: 44.7 µM [inhibitor, single point]. `CC(C)(C)n1cc(C(=O)c2ccc3ccccc3c2O)cn1` was tested, and the Potency was inconclusive: 35.5 µM [inhibitor, single point]. In the case of `Clc1ccc(-c2nc3ccc(Cl)cn3c2CN2CCOCC2)cc1`, the Potency is reported as inconclusive: 50.1 µM [inhibitor, partial curve, poor fit]. For `Cc1cc2cc(CNC(=O)Nc3ccc(Cl)c(Cl)c3)ccc2n1C`, the Potency was inconclusive: 4.47 µM [inhibitor, full curve, poor fit]. `CCCCC/C=C\C=C\[C@H](CCCCCCCC(=O)O)OO` was tested, and the Potency was inconclusive: 10 µM [inhibitor, full curve]. For `N#CC(C#N)=Cc1ccc(O)cc1`, the Potency was inconclusive: 39.8 µM [inhibitor, single point]. `COc1ccc(-c2coc3cc(OC(=O)N4CCOCC4)ccc3c2=O)cc1` was tested, and the Potency was inconclusive: 0.0794 µM [inhibitor, full curve]. With `c1nc[n]([Sn]([CH]2CCCCC2)([CH]2CCCCC2)[CH]2CCCCC2)n1` the Potency was “inactive”.
